Measured values reported in paper PMC7022278, “Alpha-Amylase and Alpha-Glucosidase Enzyme Inhibition and Antioxidant Potential of 3-Oxolupenal and Katononic Acid Isolated from Nuxia oppositifolia” (Biomolecules, 2019).

System: α-glucosidase
Assay: Fluorescence quenching-based binding study, α-glucosidase
Conditions: 298 K, pH 6.8
Experimental: Proteins were excited at 295 nm and the fluorescence spectra were recorded in the 300–450 nm range. The excitation and emission slit widths were set at 5 nm each. The concentration of proteins was fixed at 2 µM while the concentration of quenchers was varied. The inner filter effect contributed by quenchers was corrected using the following relation. (2) Fcorr=Fobs×e^(Aex+Aem)/2 where Fcorr is the corrected fluorescence intensity, Fobs is the observed fluorescence intensity, Aex is the absorbance at the excitation wavelength, and Aem is the absorbance at the emission wavelength.
Observing quenching in the fluorescence intensity of a protein in the presence of a ligand is a powerful tool in determining the binding parameters such as binding affinity and Gibb’s free energy of stabilization. Here, we have followed quenching in the fluorescence intensity of α-amylase and α-glucosidase in the presence of 3-oxolupenal and katononic acid at 298 K (Figure 4 and Figure 5). […] The binding parameters for the interaction were deduced using the following Stern–Volmer and modified Stern–Volmer equations. (3) Fo/F=1+KSV[Q]=1+kqτo[Q] […]

CC1(C)C(=O)CC[C@]2(C)[C@H]3CC=C4[C@@H]5C[C@](C)(C(=O)O)CC[C@]5(C)CC[C@@]4(C)[C@]3(C)CC[C@@H]12 [Katononic acid, katononic acid]
Number of Binding Sites n: 0.8239

C=C(C=O)[C@@H]1CC[C@]2(C)CC[C@]3(C)[C@H](CC[C@@H]4[C@@]5(C)CCC(=O)C(C)(C)[C@@H]5CC[C@]43C)[C@@H]12 [3-oxolupenal]
Number of Binding Sites n: 0.9133
